Experimental data taken from article PMC5019376.
Results are given in words; binding and its absence hold for the method and conditions named. In cells and extracts the contact can be indirect. A result given as binding can be weak or reduced; the word gives no strength. Sequences can lack the tags named with a protein.

Biological target: T1, TIR1 (wild type, BiFC fusion) (Arabidopsis) (UniProt Q570C0)
T1 sequence: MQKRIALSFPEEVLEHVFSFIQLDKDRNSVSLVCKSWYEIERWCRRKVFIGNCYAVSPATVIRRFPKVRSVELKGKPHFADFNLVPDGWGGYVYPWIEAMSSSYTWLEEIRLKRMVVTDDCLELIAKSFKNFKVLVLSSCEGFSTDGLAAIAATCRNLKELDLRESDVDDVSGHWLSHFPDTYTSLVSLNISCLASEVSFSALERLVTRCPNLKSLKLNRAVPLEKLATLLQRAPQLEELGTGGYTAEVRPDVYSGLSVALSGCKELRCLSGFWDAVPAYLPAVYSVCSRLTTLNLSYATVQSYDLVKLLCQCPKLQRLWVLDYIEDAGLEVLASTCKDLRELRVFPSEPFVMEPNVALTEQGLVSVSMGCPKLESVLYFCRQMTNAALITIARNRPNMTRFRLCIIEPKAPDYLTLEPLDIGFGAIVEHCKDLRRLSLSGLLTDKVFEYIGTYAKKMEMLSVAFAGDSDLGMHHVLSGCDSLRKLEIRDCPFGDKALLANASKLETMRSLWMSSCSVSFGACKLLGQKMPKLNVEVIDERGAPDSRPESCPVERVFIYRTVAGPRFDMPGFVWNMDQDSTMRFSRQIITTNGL
Assay: split reporter; BiFC after transient expression in Nicotiana benthamiana leaves, confocal imaging; some TIR1-TIR1 samples with co-expressed Myc:ASK1 and 100 uM CHX

Row | binding | Substance
1 | binds | TIR1 mutated at Glu141 (BiFC fusion) (from UniProt Q570C0)
2 | binds | TIR1 mutated at Ser139 (BiFC fusion) (from UniProt Q570C0)
